Source: patent publication US20240325539A1, “METHODS AND COMPOSITIONS FOR TREATING EPSTEIN BARR VIRUS-ASSOCIATED CANCER” (The Chancellor, Masters and Scholars of the University of …, priority 2020, published 2024)
At least one structure is not confirmed: it was looked up by name or label, or the drawing left a doubt.

Key:
Assay type in all cases: cell-based, human
[1] = system: AGS-EBV cells; experiment: Killing of AGS-EBV cells by Zta-specific TCR-T cells (IncuCyte, Cytotox Red)
Method: EBV+GC cells were treated with either 2.5 μM of CXD101, 5 μM of chidamide, or 5 μM of SAHA, and DMSO was used as a negative control. Approximately 10×10^5 AGS-EBV cells were plated in […] the day before treatment to allow 50% confluence. The next day, the media was removed, and the cells were treated for 48 hours with the HDACi or DMSO. After 48 hours, the cells were dissociated with trypsin-EDTA and counted. The dissociated cells were plated in the wells of a flat-bottomed 96-well plate and left to adhere for 4-6 hours before the addition of Zta-specific T cells. The IncuCyte S3 Live-Cell analysis system was used to analyze the interactions between the T cells and the HDACi-treated gastric cells over a period of 24 hours. The cells were cultured at an E:T ratio of 10:1. The IncuCyte® Cytotox Red Reagent for counting dead cells was added to each well at the start of incubation. […] After 24 hours of incubation, the supernatant was removed from the wells for quantification of cytokines. The ability of the clones to kill the target cells was assessed using the automated IncuCyte analysis software. The Cytotox Red apoptosis marker that was added to the wells at the start of co-culture was taken up by dead cells, and the overlap area of this red fluorescence with larger, very bright GFP cells was measured in μm^2 per replicate well at each set time point.

[2] = system: AGS-EBV cells; experiment: Zta expression (immunofluorescence and Western blot); details: 5 μM SAHA, 5 μM chidamide, 2.5 μM CXD101
Method: (§1) Protein concentration was determined by the Bradford assay.

[3] = system: YCCEL1 cells; experiment: Western blot for Zta and total acetylation of histone 3
Method: as §1

[4] = system: Burkitt lymphoma cell lines Namalwa, Raji, and Akata; experiment: Western blot for Zta and H3-ac in Burkitt lymphoma cell lines; details: naturally infected Burkitt lymphoma cell lines
Method: as §1
(§2) CXD101 is currently undergoing clinical trials (Eyre, T. A., et al. (2019). Cancer 125, 99-108.), and chidamide is approved in China by the National Medical Products Administration (NMPA) for treatment of peripheral T-cell lymphoma (Xu, Y., et al. (2017). Drugs of Today; 53.) and breast cancer (Jiang, Z., et al. (2018). Annals of Oncology; 29.). Therefore, chidamide and CXD101 were used to treat naturally-infected Burkitt lymphoma cell lines Namalwa, Raji, and Akata, or the ex vivo infected lymphoblastoid cell line PD-LCL in parallel with YCCEL1 cells. Romidepsin was used to treat the same panel of cells. […] Zta expression level in ex vivo infected B cell line PD-LCL is detectable in DMSO treated cells and it is not affected after HDACi treatment. All HDACis used induced detectable amounts of H3-ac, with cell line-dependent variation (FIG. 1E). To assess the extent of EBV reactivation, mRNA expression of several immediate-early, early, and late lytic genes was analysed (FIG. 9E). […] Up to 5-10% of YCCEL1 and SNU719 cells were positive for late Viral Capsid Antigen (VCA) after chidamide or CXD101 treatment, but not SAHA-treatment. […] Both benzamide- and hydroxymate-based HDACi can induce EBV reactivation in gastric epithelial cancer cells, but benzamide-based HDACis are generally less toxic than hydroxymate-based HDACi.

[5] = system: PD-LCL cells; experiment: Western blot for Zta in lymphoblastoid cell line; details: detectable in DMSO treated cells
Method: as §1, §2

[6] = FIGS. 1C and 9D (YCCEL1; SNU719)

Nc1cc(F)ccc1NC(=O)c1ccc(CNC(=O)/C=C/c2cccnc2)cc1 [chidamide]
toxicity induced by T cells ([1]; AGS-EBV, compared to SAHA (P<0.01)): more pronounced
cell death of AGS-EBV cells ([1]; HDACi pre-treatment, then primary T cells expressing TCR4, after 8 h of co-culture, compared to DMSO): dramatic increase in cell death
Zta expression [2]: strong activation of Zta expression
Zta expression ([3]; YCCEL1 overexpressing HA-tagged wild-type p53): further potentiated

C/C=C1\NC(=O)[C@H]2CSSCC/C=C/[C@H](CC(=O)N[C@H](C(C)C)C(=O)N2)OC(=O)[C@H](C(C)C)NC1=O [romidepsin]
Zta expression [4]: none of these HDACi induced Zta expression
induction of Zta expression (Western blot) [3, 6]: failure
total histone 3 acetylation (H3-ac) [3, 6]: induced detectable H3-ac
Zta expression level [5]: not affected
